B1: JUPI1 (protein, UniProt Q9UK76 1-154, looked up)
Jupiter microtubule …: MTTTTTFKGVDPNSRNSSRVLRPPGGGSNFSLGFDEPTEQPVRKNKMASNIFGTPEENQASWAKSAGAKSSGGREDLESSGLQRRNSSEASSGDFLDLKGEGDIHENVDTDLPGSLGQSEEKPVPAAPVPSPVAPAPVPSRRNPPGGKSSLVLG
B2: CEAM1 (protein, UniProt P13688 35-526, looked up)
Cell adhesion molecule CEACAM1: QLTTESMPFNVAEGKEVLLLVHNLPQQLFGYSWYKGERVDGNRQIVGYAIGTQQATPGPANSGRETIYPNASLLIQNVTQNDTGFYTLQVIKSDLVNEEATGQFHVYPELPKPSISSNNSNPVEDKDAVAFTCEPETQDTTYLWWINNQSLPVSPRLQLSNGNRTLTLLSVTRNDTGPYECEIQNPVSANRSDPVTLNVTYGPDTPTISPSDTYYRPGANLSLSCYAASNPPAQYSWLINGTFQQSTQELFIPNITVNNSGSYTCHANNSVTGCNRTTVKTIIVTELSPVVAKPQIKASKTTVTGDKDSVNLTCSTNDTGISIRWFFKNQSLPSSERMKLSQGNTTLSINPVKREDAGTYWCEVFNPISKNQSDPIMLNVNYNALPQENGLSPGAIAGIVIGVVALVALIAVALACFLHFGKTGRASDQRDLTEHKPSVSNHTQDHSNDPPNKMNEVTYSTLNFEAQQPTQPTSASPSLTATEIIYSEVKKQ
B3: PRELP (protein, UniProt P51888 21-382, looked up)
Prolargin: QPTRRPRPGTGPGRRPRPRPRPTPSFPQPDEPAEPTDLPPPLPPGPPSIFPDCPRECYCPPDFPSALYCDSRNLRKVPVIPPRIHYLYLQNNFITELPVESFQNATGLRWINLDNNRIRKIDQRVLEKLPGLVFLYMEKNQLEEVPSALPRNLEQLRLSQNHISRIPPGVFSKLENLLLLDLQHNRLSDGVFKPDTFHGLKNLMQLNLAHNILRKMPPRVPTAIHQLYLDSNKIETIPNGYFKSFPNLAFIRLNYNKLTDRGLPKNSFNISNLLVLHLSHNRISSVPAINNRLEHLYLNNNSIEKINGTQICPNDLVAFHDFSSDLENVPHLRYLRLDGNYLKPPIPLDLMMCFRLLQSVVI
B4: PLP2 (protein, UniProt Q04941 1-152, looked up)
Proteolipid protein 2: MADSERLSAPGCWAACTNFSRTRKGILLFAEIILCLVILICFSASTPGYSSLSVIEMILAAIFFVVYMCDLHTKIPFINWPWSDFFRTLIAAILYLITSIVVLVERGNHSKIVAGVLGLIATCLFGYDAYVTFPVRQPRHTAAPTDPADGPV
B5: SUGP2 (protein, UniProt Q8IX01 1-1082, looked up)
SURP and G-patch …: MAARRITQETFDAVLQEKAKRYHMDASGEAVSETLQFKAQDLLRAVPRSRAEMYDDVHSDGRYSLSGSVAHSRDAGREGLRSDVFPGPSFRSSNPSISDDSYFRKECGRDLEFSHSDSRDQVIGHRKLGHFRSQDWKFALRGSWEQDFGHPVSQESSWSQEYSFGPSAVLGDFGSSRLIEKECLEKESRDYDVDHPGEADSVLRGGSQVQARGRALNIVDQEGSLLGKGETQGLLTAKGGVGKLVTLRNVSTKKIPTVNRITPKTQGTNQIQKNTPSPDVTLGTNPGTEDIQFPIQKIPLGLDLKNLRLPRRKMSFDIIDKSDVFSRFGIEIIKWAGFHTIKDDIKFSQLFQTLFELETETCAKMLASFKCSLKPEHRDFCFFTIKFLKHSALKTPRVDNEFLNMLLDKGAVKTKNCFFEIIKPFDKYIMRLQDRLLKSVTPLLMACNAYELSVKMKTLSNPLDLALALETTNSLCRKSLALLGQTFSLASSFRQEKILEAVGLQDIAPSPAAFPNFEDSTLFGREYIDHLKAWLVSSGCPLQVKKAEPEPMREEEKMIPPTKPEIQAKAPSSLSDAVPQRADHRVVGTIDQLVKRVIEGSLSPKERTLLKEDPAYWFLSDENSLEYKYYKLKLAEMQRMSENLRGADQKPTSADCAVRAMLYSRAVRNLKKKLLPWQRRGLLRAQGLRGWKARRATTGTQTLLSSGTRLKHHGRQAPGLSQAKPSLPDRNDAAKDCPPDPVGPSPQDPSLEASGPSPKPAGVDISEAPQTSSPCPSADIDMKTMETAEKLARFVAQVGPEIEQFSIENSTDNPDLWFLHDQNSSAFKFYRKKVFELCPSICFTSSPHNLHTGGGDTTGSQESPVDLMEGEAEFEDEPPPREAELESPEVMPEEEDEDDEDGGEEAPAPGGAGKSEGSTPADGLPGEAAEDDLAGAPALSQASSGTCFPRKRISSKSLKVGMIPAPKRVCLIQEPKVHEPVRIAYDRPRGRPMSKKKKPKDLDFAQQKLTDKNLGFQMLQKMGWKEGHGLGSLGKGIREPVSVGTPSEGEGLGADGQEHKEDTFDVFRQRMMQMYRHKRANK
B6: AMPN (protein, UniProt P15144 2-967, looked up)
Aminopeptidase N: AKGFYISKSLGILGILLGVAAVCTIIALSVVYSQEKNKNANSSPVASTTPSASATTNPASATTLDQSKAWNRYRLPNTLKPDSYRVTLRPYLTPNDRGLYVFKGSSTVRFTCKEATDVIIIHSKKLNYTLSQGHRVVLRGVGGSQPPDIDKTELVEPTEYLVVHLKGSLVKDSQYEMDSEFEGELADDLAGFYRSEYMEGNVRKVVATTQMQAADARKSFPCFDEPAMKAEFNITLIHPKDLTALSNMLPKGPSTPLPEDPNWNVTEFHTTPKMSTYLLAFIVSEFDYVEKQASNGVLIRIWARPSAIAAGHGDYALNVTGPILNFFAGHYDTPYPLPKSDQIGLPDFNAGAMENWGLVTYRENSLLFDPLSSSSSNKERVVTVIAHELAHQWFGNLVTIEWWNDLWLNEGFASYVEYLGADYAEPTWNLKDLMVLNDVYRVMAVDALASSHPLSTPASEINTPAQISELFDAISYSKGASVLRMLSSFLSEDVFKQGLASYLHTFAYQNTIYLNLWDHLQEAVNNRSIQLPTTVRDIMNRWTLQMGFPVITVDTSTGTLSQEHFLLDPDSNVTRPSEFNYVWIVPITSIRDGRQQQDYWLIDVRAQNDLFSTSGNEWVLLNLNVTGYYRVNYDEENWRKIQTQLQRDHSAIPVINRAQIINDAFNLASAHKVPVTLALNNTLFLIEERQYMPWEAALSSLSYFKLMFDRSEVYGPMKNYLKKQVTPLFIHFRNNTNNWREIPENLMDQYSEVNAISTACSNGVPECEEMVSGLFKQWMENPNNNPIHPNLRSTVYCNAIAQGGEEEWDFAWEQFRNATLVNEADKLRAALACSKELWILNRYLSYTLNPDLIRKQDATSTIISITNNVIGQGLVWDFVQSNWKKLFNDYGGGSFSFSNLIQAVTRRFSTEYELQQLEQFKKDNEETGFGSGTRALEQALEKTKANIKWVKENKEVVLQWFTENSK
B7: LEG1H (protein, UniProt Q6P5S2 21-330, looked up)
Protein LEG1 homolog: GTSNLSETEPPLWKESPGQLSDYRVENSMYIINPWVYLERMGMYKIILNQTARYFAKFAPDNEQNILWGLPLQYGWQYRTGRLADPTRRTNCGYESGDHMCISVDSWWADLNYFLSSLPFLAAVDSGVMGISSDQVRLLPPPKNERKFCYDVSSCRSSFPETMNKWNTFYQYLQSPFSKFDDLLKYLWAAHTSTLADNIKSFEDRYDYYSKAEAHFERSWVLAVDHLAAVLFPTTLIRSYKFQKGMPPRILLNTDVAPFISDFTAFQNVVLVLLNMLDNVDKSIGYLCTEKSNVYRDHSESSSRSYGNNS
B8: ZYX (protein, UniProt Q15942 2-572, looked up)
Zyxin: AAPRPSPAISVSVSAPAFYAPQKKFGPVVAPKPKVNPFRPGDSEPPPAPGAQRAQMGRVGEIPPPPPEDFPLPPPPLAGDGDDAEGALGGAFPPPPPPIEESFPPAPLEEEIFPSPPPPPEEEGGPEAPIPPPPQPREKVSSIDLEIDSLSSLLDDMTKNDPFKARVSSGYVPPPVATPFSSKSSTKPAAGGTAPLPPWKSPSSSQPLPQVPAPAQSQTQFHVQPQPQPKPQVQLHVQSQTQPVSLANTQPRGPPASSPAPAPKFSPVTPKFTPVASKFSPGAPGGSGSQPNQKLGHPEALSAGTGSPQPPSFTYAQQREKPRVQEKQHPVPPPAQNQNQVRSPGAPGPLTLKEVEELEQLTQQLMQDMEHPQRQNVAVNELCGRCHQPLARAQPAVRALGQLFHIACFTCHQCAQQLQGQQFYSLEGAPYCEGCYTDTLEKCNTCGEPITDRMLRATGKAYHPHCFTCVVCARPLEGTSFIVDQANRPHCVPDYHKQYAPRCSVCSEPIMPEPGRDETVRVVALDKNFHMKCYKCEDCGKPLSIEADDNGCFPLDGHVLCRKCHTARAQT
B9: LV310 (protein, UniProt A0A075B6K4 20-115, looked up)
Immunoglobulin lambda …: SYELTQPPSVSVSPGQTARITCSGDALPKKYAYWYQQKSGQAPVLVIYEDSKRPSGIPERFSGSSSGTMATLTISGAQVEDEADYYCYSTDSSGNH
B10: ACBP (protein, UniProt P07108 2-87, looked up)
Acyl-CoA-binding protein: SQAEFEKAAEEVRHLKTKPSDEEMLFIYGHYKQATVGDINTERPGMLDFTGKAKWDAWNELKGTSKEDAMKAYINKVEELKKKYGI
B11: LFNG (protein, UniProt Q8NES3 1-379, looked up)
Beta-1,3-N-acetylglucosaminylt …: MLKRCGRRLLLALAGALLACLLVLTADPPPPPLPAERGRRALRSLAGPAGAAPAPGLGAAAAAPGALVRDVHSLSEYFSLLTRARRDAGPPPGAAPRPADGHPRPLAEPLAPRDVFIAVKTTKKFHRARLDLLLETWISRHKEMTFIFTDGEDEALARHTGNVVITNCSAAHSRQALSCKMAVEYDRFIESGRKWFCHVDDDNYVNLRALLRLLASYPHTRDVYVGKPSLDRPIQAMERVSENKVRPVHFWFATGGAGFCISRGLALKMSPWASGGHFMNTAERIRLPDDCTIGYIVEALLGVPLIRSGLFHSHLENLQQVPTSELHEQVTLSYGMFENKRNAVHVKGPFSVEADPSRFRSIHCHLYPDTPWCPRTAIF

The first data set can be described thus: Saliva proteomics: biomarker quantification by mass spectrometry SWATH in participants at risk of heart failure vs controls. Also on record: species or system human. As to conditions: differential expression (fold) between control and at-risk averages, saliva.
Turning to B1, the “Control vs Risk” value is on record as 1.54.
Consider B2, for which the “Control vs Risk” value is 2.85.
Consider B3, for which the “Control vs Risk” value is 1.49.

The data set is the same for the next values; noted with them: differential expression (fold) control vs 'at risk'; printed as larger/smaller average whatever the direction.
For B4, the “Control vs Risk” value is 3.45.
The same measure, in the same setting: next, B5: 3.78; B6: 3.33.
Still for that read-out and setting: as for B7, the figure is 3.80; as for B8, 3.47; as for B9, 3.39.
Take B10: the “Control vs Risk” value came out at 4.25.
Same read-out and setting: as for B11, the figure is 3.25.

Staying with this data set, now noted: saliva, 'at risk' of heart failure group mean, mass spectrometry SWATH quantification.
Regarding B4, the AtRisk average is given as 40,439 ng/ml.
The same measure, in the same setting: as for B5, the figure is 2,852 ng/ml; as for B6, 16,886 ng/ml.
On to B7, for which the AtRisk average is given as 7,884,593 ng/ml.
B8: the AtRisk average was 617,222 ng/ml.
The same measure, in the same setting: next, B9: 385,001 ng/ml; B10: 5,811,090 ng/ml.
Regarding B11, the AtRisk average was 65,302 ng/ml.

Still in this data set, the particulars now being: saliva, 'at risk' of heart failure group mean, mass spectrometry SWATH, 20 samples.
Turning to B1, the AtRisk average is on record as 1,070,216 ng/ml.
Take B2: the AtRisk average is 364,656 ng/ml.
For the molecule B3, the AtRisk average was 74,266 ng/ml.

The data set is the same for the next values; noted with them: saliva, control group mean, mass spectrometry SWATH quantification.
On to B4, for which the Control average is listed as 139,383 ng/ml.
For the molecule B5, the Control average was 10,789 ng/ml.
For the molecule B6, the Control average is 56,159 ng/ml.
B7: the Control average is given as 29,932,578 ng/ml.
As for B8, the Control average is 2,143,957 ng/ml.
Consider B9, for which the Control average was 1,306,454 ng/ml.
Regarding B10, the Control average is recorded as 1,366,139 ng/ml.
Turning to B11, the Control average is 212,321 ng/ml.

The same data set, now with this note: saliva, control group mean, mass spectrometry SWATH, 20 samples.
In the case of B1, the Control average is on record as 695,806 ng/ml.
As for B2, the Control average is reported as 127,906 ng/ml.
Regarding B3, the Control average is on record as 49,932 ng/ml.

Values taken from US12521402B2, “Biomarker and drug combinations for heart failure prediction” (Endothelium Scanning Nanotechnology Limited, priority 2022, dated 2026).
